PMC6026624
These are yes or no findings as the source states them, for the method shown. In cells and extracts the contact can be indirect. Some entries that bind do so weakly or less than the wild type. Tags and fused reporters may be left off the sequences shown.

The chains behind the UniProt entries cited, without tags or fusion partners.
UniProt Q7Z434: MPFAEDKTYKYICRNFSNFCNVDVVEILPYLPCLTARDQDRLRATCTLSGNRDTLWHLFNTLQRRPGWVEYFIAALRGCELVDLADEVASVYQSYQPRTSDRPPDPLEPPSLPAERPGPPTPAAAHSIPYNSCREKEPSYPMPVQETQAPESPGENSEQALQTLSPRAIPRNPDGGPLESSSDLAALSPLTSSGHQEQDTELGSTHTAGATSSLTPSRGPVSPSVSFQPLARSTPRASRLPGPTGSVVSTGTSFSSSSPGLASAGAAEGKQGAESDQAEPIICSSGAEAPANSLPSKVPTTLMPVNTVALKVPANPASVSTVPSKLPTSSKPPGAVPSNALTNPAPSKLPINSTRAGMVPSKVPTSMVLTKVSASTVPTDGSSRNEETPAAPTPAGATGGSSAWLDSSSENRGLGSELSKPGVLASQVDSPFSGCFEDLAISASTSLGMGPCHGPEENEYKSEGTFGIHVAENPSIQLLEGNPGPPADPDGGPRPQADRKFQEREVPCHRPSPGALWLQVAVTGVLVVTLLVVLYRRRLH

Target: T1, FLAG tagged MDA5 (melanoma differentiation-associated protein 5) (human) (UniProt Q9BYX4)
T1 sequence: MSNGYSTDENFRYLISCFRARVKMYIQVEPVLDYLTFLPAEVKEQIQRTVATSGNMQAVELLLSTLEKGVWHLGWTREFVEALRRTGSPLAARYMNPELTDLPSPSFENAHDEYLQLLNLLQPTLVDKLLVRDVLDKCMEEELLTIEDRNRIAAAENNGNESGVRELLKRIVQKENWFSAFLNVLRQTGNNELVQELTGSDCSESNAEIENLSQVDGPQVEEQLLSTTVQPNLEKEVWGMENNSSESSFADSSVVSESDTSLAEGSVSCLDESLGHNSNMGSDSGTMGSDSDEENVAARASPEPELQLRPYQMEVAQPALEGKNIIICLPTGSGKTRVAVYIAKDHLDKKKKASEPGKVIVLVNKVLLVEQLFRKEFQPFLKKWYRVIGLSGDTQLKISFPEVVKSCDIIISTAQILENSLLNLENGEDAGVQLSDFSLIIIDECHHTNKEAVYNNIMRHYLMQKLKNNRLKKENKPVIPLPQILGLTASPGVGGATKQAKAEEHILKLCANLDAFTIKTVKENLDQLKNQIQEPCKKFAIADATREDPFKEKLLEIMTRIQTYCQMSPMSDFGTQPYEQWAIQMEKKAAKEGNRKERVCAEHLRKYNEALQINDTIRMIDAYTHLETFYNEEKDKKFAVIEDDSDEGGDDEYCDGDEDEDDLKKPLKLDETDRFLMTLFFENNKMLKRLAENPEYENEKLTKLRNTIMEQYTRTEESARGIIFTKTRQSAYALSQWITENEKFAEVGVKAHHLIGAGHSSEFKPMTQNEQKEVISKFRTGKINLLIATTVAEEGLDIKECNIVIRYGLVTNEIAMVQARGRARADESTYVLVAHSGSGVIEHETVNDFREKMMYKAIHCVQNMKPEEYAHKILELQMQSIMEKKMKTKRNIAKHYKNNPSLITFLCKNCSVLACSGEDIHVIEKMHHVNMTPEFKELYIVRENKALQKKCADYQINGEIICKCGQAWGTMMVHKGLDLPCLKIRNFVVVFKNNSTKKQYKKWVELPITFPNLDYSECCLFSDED
Experiment: co-IP; HEK293T cells transfected with FLAG-MDA5 or FLAG-ΔRIG-I and Myc vector or increasing amounts of Myc-NS4A (plasmid molar ratio to FLAG-MDA5 1:3; to FLAG-ΔRIG-I 1:6, 1:3, 1:2); anti-FLAG precipitation, endogenous MAVS detected by immunoblot

## endogenous MAVS (from UniProt Q7Z434 1-540)
  binding: binds
